The values that follow come from the supplement of paper PMC12425257.

Values joined by “and” are separate entries in the source; they are usually repeats but may differ in a detail not shown here. Equal entries are not always repeated. ± gives the standard deviation of the averaged measurements. Some of the results follow.

The subject of this experiment is Madurella mycetomatis MM55. Nature of the experiment: metabolic activity (growth) relative to DMSO growth control; higher = more fungal growth. Conditions: 2 µM.
Regarding `NS(=O)(=O)c1ccc(N/N=C2\C(=O)Nc3ccc(-c4cnco4)cc32)cc1`, the metabolic activity amounted to 124 ± 35%.
The value for `CC(=O)O.Nc1ncc2ccn(-c3ccc4[nH]ncc4c3)c2n1` was 114 ± 37%.
The value for `COCCOCCOc1cc2c(cc1OC)NC(=O)c1ccc(-c3ccc([N+](=O)[O-])c(OC)c3)cc1N2` was 120 ± 20%; that for `CCc1cc(Nc2nccc(-c3c(-c4ccc(OC)c(C(=O)Nc5c(F)cccc5F)c4)nc4ccccn34)n2)c(OC)cc1N1CCC(N2CCN(S(C)(=O)=O)CC2)CC1` was 96.5 ± 20%.
In the case of `O=C(Nc1ccc(NC(=O)C2CCCN(c3cccnn3)C2)cc1)c1ccncc1` (stereo unspecified), the metabolic activity stood at 76.4 ± 10%.
Next, `NS(=O)(=O)c1cccc(-c2ccc3nccc(-c4cccc(S(N)(=O)=O)c4)c3c2)c1`: 81.3 ± 6.7%; `O=C(Nc1cccnc1)c1cc(-c2ccnc(F)c2)ccc1OCc1ccccc1`: 109 ± 14%.
Next, `Cc1ncc2n1CCN(c1nc(C3=C(c4c[nH]c5sccc45)C(=O)NC3=O)c3ccccc3n1)C2`: 93.8 ± 13%; `NC[C@@H](NC(=O)c1ccc(-c2cccnc2)cc1)c1ccccc1`: 116 ± 3%.
Next, `Cc1cc(-c2cnc(N)c3c(-c4ccc5scnc5c4)csc23)n(C)n1`: 90.1 ± 5.1%; `CCn1cc(-c2ccnc3[nH]c(-c4cccc(CN(C)C)c4)cc23)c(-c2ccc(NC(=O)N(C)C)cc2)n1`: 102 ± 32%.
In the case of `O=C(Nc1n[nH]c2cc(-c3cccc(F)c3)ccc12)C1CC1`, the metabolic activity was determined as 97.3 ± 22%.
Next, `CN(C)CC(=O)N1CCC(C(=O)Nc2ncc(SCc3ncc(C(C)(C)C)o3)s2)CC1`: 114 ± 16%; `COc1ccc2[nH]c3c4[nH]c5ccc(OC)cc5c4c4c(c3c2c1)C(=O)NC4=O`: 96.7 ± 1.4%; `COc1ccc2nc(-c3cccc(C)n3)nc(Nc3ccncc3)c2c1`: 118 ± 2.6%.
`CC(C)(C)OC(=O)NCCCNS(=O)(=O)c1ccc(Nc2ncc3c(n2)Nc2ccsc2C(=O)N3)cc1`: the metabolic activity amounted to 79.1 ± 0.3%.
Next, `COc1cccc(-n2ncc3c(N/N=C/c4ccncc4)ncnc32)c1`: 65.4 ± 16%; `Cn1ccc2ncnc(Oc3ccc(NC(=O)Nc4ccccc4)cc3)c21`: 113 ± 33%.
As for `CN(C)Cc1nc2c(sc3ccc(-c4ccc(O)cc4)cc32)c(=O)[nH]1.Cl`, the metabolic activity amounted to 94.3 ± 16%.
As to `COc1ccc2cc(-c3c(-c4ccncc4)nc(-c4ccc(S(C)(=O)=O)cc4C)n3C)ccc2c1`, the metabolic activity was found to be 83.9 ± 2.9%.
Next, `O=C(Nc1cnccn1)Nc1ccnc2c(F)cccc12`: 131.6 ± 0.73%.
The value for `Nc1nc(-c2ccccc2F)c(-c2ccnc3ccccc23)s1` was 112 ± 38%; that for `CNc1nc(Nc2ccc(C(=O)N3CCOCC3)cc2OC)nc2[nH]cc(Cl)c12` was 94.5 ± 9.7%.
Next, `CCC(NN(C)C)=C1C(=O)Nc2ccc(C(C)=O)cc21`: 99.5 ± 18%; `Cc1cc(O)cc(C)c1/C=C/c1cncc(C(N)=O)c1`: 81.8 ± 16%; `CNc1nc(-c2ccc3c(N)n[nH]c3c2)cc(N2C[C@@H](C(=O)Nc3ccccc3)CC[C@H]2C)n1`: 90 ± 1.4%.
Regarding `COc1ccc(-c2cc3c(C)nc(N)nc3n([C@H]3CC[C@H](O)CC3)c2=O)cn1`, the metabolic activity stood at 80.8 ± 3.2%.
The value for `CN(C)CCN(C)C(=O)c1cc(-c2ccncc2)c(-c2ccc(Cl)c(O)c2)o1` was 85.3 ± 35%; that for `COc1cc2nccc(Nc3ccc(OCc4ccc(NC(C)=O)cc4)cc3)c2cc1OC` was 108 ± 50%; that for `Cc1ccc(-n2c(=O)c3cnc(Nc4ccc(N5CCN(C)CC5)cc4)nc3n3ccnc23)c(Cl)c1.O=C(O)C(F)(F)F.O=C(O)C(F)(F)F` was 93.9 ± 28%.
The value for `COc1ccccc1-c1cc(/C=C2\C(=O)Nc3ncc(Br)cc32)cc(Br)c1O` was 80.7 ± 28%; that for `CCc1c(-c2nonc2N)nc2c(C#Cc3ccccc3)ccc(N3C[C@H](N)[C@@H](O)C3)n12` was 107 ± 18%; that for `CCNc1n[nH]c2ccc(C3C(C#N)=C(C)NC(C)=C3C#N)cc12` was 85.3 ± 12%.
Next, `COCCNC(=O)c1ccc(-c2cc(C(=O)NC3CC3)cc(F)c2C)cc1`: 80.5 ± 6.9%.
In the case of `C[C@@H]1CCN(C(=O)CC#N)C[C@@H]1N(C)c1ncnc2[nH]ccc12`, the metabolic activity was 98.6 ± 24%.
The value for `C[C@@H]1CN(c2cc(-c3n[nH]c4ccc(OC5(C)CC5)cc34)ncn2)C[C@H](C)O1` was 80.1% and 98.2%.
